Assay results taken from patent US11985994B2, “Sweetener and flavor compositions, methods of making and methods of use thereof” (EPC Natural Products Co., Ltd., priority 2018, dated 2024).
At least one compound was matched to its structure with a doubt left.

Assay: Sensory evaluation (smell, color, taste) of Maillard reaction samples, Examples 52, 55-63
Design: species or system human
Settings: after reaction, 10 ml KH2PO4 pH 7.8, 2.5 h, 120 °C (Example 57)
Experimental: For evaluation of the taste profile, the samples were tested by a panel of four people. 1 trained taster tasted independently the samples first. The taster was asked to describe the taste profile and score 0-5 according to the increasing sugar likeness, bitterness, aftertaste and lingering taste profiles. The first taster was allowed to re-taste, and then make notes for the sensory attributes perceived. Afterwards, another 3 tasters tasted and the attributes were noted and discussed openly to find a suitable description. In case that more than 1 taster disagreed with the results, the tasting was repeated. In some sensory test results (above), the taste rating was expressed by “+”, which means the intensity of the factors is shown by three levels. “+” for slight, “++” for moderate and “+++” for very strong.
All samples were assessed at 22° C. after the Maillard reaction was stopped by placing the sealed vials in an ice bath. After 20 minutes in the ice bath the sealed vials were put in a water bath set to 22° C.
The odor/smell was assessed independently by 3 persons; the final description was agreed after discussion. […] The taste was assessed independently by 3 persons either in the original samples or after appropriate dilution to achieve relevant concentrations of sugars and steviol-glycosides (i.e. 5-9% SE); the final description was agreed after discussion.

NC(Cc1ccccc1)C(=O)O (single isomer, unassigned) [Phe, Phenylalanine]
Color: Slightly Yellow
